# According to PMC7521757:
# Protein sequences, listed by entry. Tags and fused reporters are not part of them. Lines headed by an entry give the natural chain unless they say otherwise; changes in a name come on top.
# UniProt Q8MWB2: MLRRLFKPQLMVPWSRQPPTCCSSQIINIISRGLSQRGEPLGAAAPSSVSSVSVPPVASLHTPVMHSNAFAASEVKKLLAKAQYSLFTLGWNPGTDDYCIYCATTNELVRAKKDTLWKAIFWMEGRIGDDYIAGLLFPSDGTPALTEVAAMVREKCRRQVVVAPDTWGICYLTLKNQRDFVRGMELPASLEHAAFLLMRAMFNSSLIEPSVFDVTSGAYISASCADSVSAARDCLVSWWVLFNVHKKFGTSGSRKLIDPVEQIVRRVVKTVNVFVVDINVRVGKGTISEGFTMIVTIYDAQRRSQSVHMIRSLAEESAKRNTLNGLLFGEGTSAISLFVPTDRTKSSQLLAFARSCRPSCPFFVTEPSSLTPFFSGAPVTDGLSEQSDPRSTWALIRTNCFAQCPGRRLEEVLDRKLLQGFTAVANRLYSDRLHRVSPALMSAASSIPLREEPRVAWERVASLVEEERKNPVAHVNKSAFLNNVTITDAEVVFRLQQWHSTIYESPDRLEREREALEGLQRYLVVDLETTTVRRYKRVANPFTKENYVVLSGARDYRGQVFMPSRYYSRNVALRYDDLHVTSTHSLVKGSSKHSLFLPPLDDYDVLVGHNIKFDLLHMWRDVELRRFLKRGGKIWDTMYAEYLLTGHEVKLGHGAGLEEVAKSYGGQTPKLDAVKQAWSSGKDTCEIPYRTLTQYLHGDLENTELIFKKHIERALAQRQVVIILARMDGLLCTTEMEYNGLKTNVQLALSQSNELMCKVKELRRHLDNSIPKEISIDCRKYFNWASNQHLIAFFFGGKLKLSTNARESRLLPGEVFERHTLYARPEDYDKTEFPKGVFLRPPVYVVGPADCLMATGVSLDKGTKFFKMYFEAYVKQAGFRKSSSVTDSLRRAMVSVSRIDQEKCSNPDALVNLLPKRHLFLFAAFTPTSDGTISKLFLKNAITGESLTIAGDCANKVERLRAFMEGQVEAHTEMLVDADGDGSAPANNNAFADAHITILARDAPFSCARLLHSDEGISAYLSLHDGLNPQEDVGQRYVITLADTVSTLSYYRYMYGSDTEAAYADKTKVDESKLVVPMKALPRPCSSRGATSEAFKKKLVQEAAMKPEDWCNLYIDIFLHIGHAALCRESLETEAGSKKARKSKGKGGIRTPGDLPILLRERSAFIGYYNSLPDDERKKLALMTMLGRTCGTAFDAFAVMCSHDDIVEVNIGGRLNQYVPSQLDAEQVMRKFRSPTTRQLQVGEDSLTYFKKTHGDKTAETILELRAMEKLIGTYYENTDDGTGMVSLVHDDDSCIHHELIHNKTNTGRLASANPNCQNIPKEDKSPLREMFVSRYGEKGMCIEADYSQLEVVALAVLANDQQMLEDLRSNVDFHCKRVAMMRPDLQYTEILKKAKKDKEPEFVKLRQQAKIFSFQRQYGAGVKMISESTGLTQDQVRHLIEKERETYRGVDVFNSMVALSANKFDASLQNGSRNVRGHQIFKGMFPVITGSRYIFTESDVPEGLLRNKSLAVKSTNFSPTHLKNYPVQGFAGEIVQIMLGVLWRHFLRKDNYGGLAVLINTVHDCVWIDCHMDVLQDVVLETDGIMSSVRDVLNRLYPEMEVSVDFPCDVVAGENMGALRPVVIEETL
# UniProt Q57WR0: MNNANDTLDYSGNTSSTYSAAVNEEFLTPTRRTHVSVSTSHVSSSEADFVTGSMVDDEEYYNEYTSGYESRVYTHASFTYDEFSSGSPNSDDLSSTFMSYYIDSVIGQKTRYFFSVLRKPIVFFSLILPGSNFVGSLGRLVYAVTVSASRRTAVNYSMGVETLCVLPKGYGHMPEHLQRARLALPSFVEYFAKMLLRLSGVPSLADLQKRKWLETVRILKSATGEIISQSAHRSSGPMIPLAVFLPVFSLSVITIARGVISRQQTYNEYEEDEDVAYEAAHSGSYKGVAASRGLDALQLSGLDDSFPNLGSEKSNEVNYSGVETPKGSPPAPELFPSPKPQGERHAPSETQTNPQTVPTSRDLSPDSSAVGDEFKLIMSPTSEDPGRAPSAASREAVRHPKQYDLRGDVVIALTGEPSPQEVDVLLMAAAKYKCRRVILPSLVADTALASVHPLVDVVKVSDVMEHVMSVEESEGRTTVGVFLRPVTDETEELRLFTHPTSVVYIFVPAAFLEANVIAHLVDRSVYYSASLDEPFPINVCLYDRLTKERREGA
# UniProt B8XN38: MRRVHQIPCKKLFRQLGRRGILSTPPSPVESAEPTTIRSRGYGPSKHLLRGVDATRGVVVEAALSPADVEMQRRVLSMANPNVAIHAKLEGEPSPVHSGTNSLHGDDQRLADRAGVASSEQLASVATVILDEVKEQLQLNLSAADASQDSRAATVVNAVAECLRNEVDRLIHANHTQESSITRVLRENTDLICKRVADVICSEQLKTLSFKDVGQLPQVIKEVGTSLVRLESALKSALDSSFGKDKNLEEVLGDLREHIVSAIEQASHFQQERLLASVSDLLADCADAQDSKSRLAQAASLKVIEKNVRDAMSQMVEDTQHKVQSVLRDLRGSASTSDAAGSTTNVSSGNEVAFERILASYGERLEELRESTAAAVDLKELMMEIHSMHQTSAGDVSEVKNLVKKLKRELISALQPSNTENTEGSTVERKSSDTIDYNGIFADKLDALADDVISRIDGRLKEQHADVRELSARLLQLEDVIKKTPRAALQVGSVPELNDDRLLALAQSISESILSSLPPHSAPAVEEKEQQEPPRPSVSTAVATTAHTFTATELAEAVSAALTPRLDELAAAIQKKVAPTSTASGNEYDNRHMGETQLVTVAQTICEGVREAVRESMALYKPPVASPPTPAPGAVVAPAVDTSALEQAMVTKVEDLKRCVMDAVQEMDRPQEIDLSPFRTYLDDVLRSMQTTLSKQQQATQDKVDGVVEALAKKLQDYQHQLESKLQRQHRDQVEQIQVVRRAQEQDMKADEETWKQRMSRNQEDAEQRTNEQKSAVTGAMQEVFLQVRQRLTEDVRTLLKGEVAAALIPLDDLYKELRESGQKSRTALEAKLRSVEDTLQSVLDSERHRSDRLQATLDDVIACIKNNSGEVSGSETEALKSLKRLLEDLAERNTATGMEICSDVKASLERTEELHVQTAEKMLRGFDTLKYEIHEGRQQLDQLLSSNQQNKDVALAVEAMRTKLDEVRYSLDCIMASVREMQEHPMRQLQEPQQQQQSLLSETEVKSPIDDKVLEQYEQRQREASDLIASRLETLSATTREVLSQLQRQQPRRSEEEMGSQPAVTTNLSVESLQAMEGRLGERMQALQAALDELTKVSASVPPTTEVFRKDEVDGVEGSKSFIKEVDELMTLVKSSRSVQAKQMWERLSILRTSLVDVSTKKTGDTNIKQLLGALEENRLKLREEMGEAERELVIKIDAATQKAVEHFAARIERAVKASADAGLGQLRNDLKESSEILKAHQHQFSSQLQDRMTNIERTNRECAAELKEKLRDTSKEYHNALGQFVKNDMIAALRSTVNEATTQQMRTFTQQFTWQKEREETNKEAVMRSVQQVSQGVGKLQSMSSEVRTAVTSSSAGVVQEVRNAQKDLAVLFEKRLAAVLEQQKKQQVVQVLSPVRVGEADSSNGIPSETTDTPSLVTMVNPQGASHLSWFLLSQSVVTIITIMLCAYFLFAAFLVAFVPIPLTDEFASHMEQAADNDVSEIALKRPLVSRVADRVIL
# UniProt Q383D2: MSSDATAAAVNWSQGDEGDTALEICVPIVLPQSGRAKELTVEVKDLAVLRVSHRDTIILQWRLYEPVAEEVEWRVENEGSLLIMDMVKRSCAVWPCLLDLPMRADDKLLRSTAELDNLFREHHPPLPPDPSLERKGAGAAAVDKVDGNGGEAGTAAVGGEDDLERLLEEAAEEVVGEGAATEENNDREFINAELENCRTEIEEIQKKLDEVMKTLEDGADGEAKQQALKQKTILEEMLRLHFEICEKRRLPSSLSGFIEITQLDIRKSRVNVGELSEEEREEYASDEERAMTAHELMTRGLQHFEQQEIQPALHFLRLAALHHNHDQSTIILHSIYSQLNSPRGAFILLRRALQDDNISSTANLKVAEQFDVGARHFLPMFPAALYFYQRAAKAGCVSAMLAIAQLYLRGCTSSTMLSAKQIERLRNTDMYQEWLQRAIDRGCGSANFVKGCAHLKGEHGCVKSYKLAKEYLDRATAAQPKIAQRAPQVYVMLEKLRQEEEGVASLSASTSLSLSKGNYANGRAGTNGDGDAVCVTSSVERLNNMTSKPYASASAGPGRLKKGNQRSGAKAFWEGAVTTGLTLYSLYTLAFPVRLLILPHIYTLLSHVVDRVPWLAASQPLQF
# UniProt Q583E5: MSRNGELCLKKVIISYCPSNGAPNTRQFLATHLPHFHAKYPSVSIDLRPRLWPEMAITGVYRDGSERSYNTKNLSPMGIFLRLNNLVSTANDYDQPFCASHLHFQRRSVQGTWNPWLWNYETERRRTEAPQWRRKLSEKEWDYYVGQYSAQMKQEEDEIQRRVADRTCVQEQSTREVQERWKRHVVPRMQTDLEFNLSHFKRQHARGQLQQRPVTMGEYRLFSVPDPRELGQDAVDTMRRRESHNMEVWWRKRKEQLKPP
# UniProt Q57UK0: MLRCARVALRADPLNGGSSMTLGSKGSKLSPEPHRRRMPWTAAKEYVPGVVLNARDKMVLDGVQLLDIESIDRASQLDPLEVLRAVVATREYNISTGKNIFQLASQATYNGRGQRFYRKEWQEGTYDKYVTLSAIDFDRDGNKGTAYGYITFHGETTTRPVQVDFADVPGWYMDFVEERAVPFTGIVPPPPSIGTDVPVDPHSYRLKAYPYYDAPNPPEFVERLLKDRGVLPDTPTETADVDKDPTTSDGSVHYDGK
# UniProt Q57ZV5: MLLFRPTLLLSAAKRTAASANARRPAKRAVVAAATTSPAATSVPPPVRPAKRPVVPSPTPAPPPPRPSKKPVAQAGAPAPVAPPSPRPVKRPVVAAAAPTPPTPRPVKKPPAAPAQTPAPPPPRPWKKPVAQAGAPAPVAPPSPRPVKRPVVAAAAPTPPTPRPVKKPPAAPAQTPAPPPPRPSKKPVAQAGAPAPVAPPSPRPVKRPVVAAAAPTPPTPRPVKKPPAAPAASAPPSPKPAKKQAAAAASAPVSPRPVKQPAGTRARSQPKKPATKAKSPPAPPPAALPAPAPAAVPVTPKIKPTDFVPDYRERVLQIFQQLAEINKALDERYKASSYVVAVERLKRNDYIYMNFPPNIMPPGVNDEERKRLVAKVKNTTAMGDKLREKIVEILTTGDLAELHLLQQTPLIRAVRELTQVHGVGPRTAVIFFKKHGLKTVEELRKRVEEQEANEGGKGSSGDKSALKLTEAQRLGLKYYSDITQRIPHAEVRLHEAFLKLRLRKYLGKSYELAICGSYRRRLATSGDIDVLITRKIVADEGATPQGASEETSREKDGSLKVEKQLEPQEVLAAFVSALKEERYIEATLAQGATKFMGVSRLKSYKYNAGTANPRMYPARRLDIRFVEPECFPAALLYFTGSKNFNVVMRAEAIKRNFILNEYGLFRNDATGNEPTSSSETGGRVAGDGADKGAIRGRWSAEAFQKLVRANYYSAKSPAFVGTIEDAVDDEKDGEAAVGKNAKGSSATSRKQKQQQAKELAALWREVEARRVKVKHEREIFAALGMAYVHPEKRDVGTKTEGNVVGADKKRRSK
# UniProt Q581S0: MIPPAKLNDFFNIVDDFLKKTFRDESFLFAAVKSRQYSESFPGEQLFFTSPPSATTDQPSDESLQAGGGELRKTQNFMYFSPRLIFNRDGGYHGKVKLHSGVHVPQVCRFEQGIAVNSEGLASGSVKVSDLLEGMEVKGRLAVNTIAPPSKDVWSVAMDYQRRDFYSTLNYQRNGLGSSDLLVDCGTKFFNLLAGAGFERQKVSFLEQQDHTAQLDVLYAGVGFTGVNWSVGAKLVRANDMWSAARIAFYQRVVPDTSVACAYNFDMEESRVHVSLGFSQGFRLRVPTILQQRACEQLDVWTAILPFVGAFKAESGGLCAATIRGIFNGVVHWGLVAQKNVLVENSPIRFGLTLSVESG
# Results are given in words; binding and its absence hold for the method and conditions named. Binding seen in cells or lysates may run through a third protein. These calls come from enrichment with a bait or labelling near it, and not all partners need be listed.
# How the values were obtained:
# [1] = target: TAC102 (endogenous) (Trypanosoma brucei brucei (endogenous in Lister 427 29-13 PCF)) (UniProt Q57XN5); experiment: affinity purification with mass spectrometry; monoclonal anti-TAC102 antibody crosslinked to protein A / protein G magnetic beads; mitochondrial enriched fraction of PCF 29.13 cells lysed in 25 mM Tris, 150 mM NaCl, 1 mM EDTA, 1% Nonidet P-40, 5% glycerol; empty beads as negative control; elution with 0.1 M glycine pH 2.4; nanoLC-MS/MS; triplicate
# [2] = target: Myc-BirA*-TAC102 fusion protein (Trypanosoma brucei) (UniProt Q57XN5); experiment: proximity labelling; BioID: PCF cells incubated with biotin for 24 h, Myc-BirA*-TAC102 induced with tetracycline for six hours; lysis in PEME buffer with 0.5% Nonidet P-40; streptavidin-conjugated magnetic beads, nanoLC-MS/MS; enrichment against non-induced cells; four biological replicates
Substance,binding [1],binding [2]
"POLID, mitochondrial DNA polymerase I D (from UniProt Q8MWB2) (enzyme)",–,binds
TAC60 (endogenous) (from UniProt Q57WR0),binds,–
p166 (endogenous) (from UniProt B8XN38),binds,–

# Results, then the substance that gave them:
binding [1],binding [2],Substance
binds,binds,"ATOM69, mitochondrial protein import receptor (from UniProt Q383D2)"
binds,binds,MRPL43 (from UniProt Q583E5)
binds,binds,MRPS34 (from UniProt Q57UK0)
binds,–,Pol beta PAK (Polymerase beta with PAK domain) (from UniProt Q57ZV5)
binds,–,TAC40 (endogenous) (from UniProt Q581S0)
